From paper PMC10721889
These are yes or no findings as the source states them, for the method shown. A result given as binding can be weak or reduced; the word gives no strength.

Amino acid sequences for entries named in this document (tags omitted). A change or cut given only in a name is not applied to a line headed by its entry.
UniProt Q9V2F4: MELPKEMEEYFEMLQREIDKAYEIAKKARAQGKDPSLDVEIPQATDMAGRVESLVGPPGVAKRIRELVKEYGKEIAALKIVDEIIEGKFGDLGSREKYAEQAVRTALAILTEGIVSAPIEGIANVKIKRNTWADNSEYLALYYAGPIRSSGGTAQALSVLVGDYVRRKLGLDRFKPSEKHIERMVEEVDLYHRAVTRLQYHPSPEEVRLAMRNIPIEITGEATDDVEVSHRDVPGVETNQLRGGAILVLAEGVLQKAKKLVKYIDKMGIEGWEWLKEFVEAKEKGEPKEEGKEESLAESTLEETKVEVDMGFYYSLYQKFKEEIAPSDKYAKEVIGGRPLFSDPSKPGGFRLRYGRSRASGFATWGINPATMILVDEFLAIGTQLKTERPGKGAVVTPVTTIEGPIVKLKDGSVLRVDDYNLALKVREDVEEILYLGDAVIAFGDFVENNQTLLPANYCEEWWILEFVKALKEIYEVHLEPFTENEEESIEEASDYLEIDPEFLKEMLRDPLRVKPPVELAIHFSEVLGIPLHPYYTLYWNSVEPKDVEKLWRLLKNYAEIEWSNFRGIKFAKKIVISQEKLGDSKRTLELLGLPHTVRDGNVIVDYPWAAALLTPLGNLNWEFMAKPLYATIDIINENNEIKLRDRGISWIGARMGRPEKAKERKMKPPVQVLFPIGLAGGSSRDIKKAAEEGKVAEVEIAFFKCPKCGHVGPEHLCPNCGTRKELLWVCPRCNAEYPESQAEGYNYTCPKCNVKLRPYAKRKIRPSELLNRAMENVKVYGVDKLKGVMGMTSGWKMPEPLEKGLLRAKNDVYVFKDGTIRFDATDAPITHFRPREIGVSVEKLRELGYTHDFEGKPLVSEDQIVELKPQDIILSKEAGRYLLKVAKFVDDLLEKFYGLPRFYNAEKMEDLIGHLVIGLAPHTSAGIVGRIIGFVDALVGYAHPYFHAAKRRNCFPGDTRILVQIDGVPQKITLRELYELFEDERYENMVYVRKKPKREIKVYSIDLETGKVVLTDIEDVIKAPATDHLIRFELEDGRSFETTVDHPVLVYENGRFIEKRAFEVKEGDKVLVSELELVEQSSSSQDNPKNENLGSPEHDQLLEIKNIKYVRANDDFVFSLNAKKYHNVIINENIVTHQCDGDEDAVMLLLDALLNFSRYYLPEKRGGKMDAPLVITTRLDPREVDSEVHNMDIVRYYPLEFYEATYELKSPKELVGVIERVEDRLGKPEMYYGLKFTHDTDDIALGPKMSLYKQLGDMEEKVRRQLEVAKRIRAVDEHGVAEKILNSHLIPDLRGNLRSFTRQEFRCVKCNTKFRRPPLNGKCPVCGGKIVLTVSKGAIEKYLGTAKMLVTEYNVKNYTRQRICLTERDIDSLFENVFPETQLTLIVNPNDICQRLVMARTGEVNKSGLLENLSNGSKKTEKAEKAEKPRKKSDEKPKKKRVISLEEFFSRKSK

Target: DP2 polymerase (large) subunit of Pyrococcus abyssi PolD (Pyrococcus abyssi) (UniProt Q9V2F4)
Assay: cryo-EM structure; 1 µM PolD^exo-, 3 µM PCNA and 1.2 µM mismatched primer/template DNA mixed in 20 mM HEPES pH 8, 150 mM NaCl, 2 mM MgCl2, 20 min at RT; single-particle cryo-EM, exo (closed) and intermediate (open) conformers; both purified

binding: binds
B1: Proliferating Cell Nuclear Antigen (PCNA, the DNA sliding Clamp) (protein, UniProt Q9UYX8 1-249)
chain: MPFEIVFEGAKEFAQLIETASRLIDEAAFKVTEEGISMRAMDPSRVVLIDLNLPASIFSKYEVDGEETIGVNMDHLKKVLKRGKAKETLILRKGEENFLEISLQGTATRTFKLPLIDVEEIEVDLPELPFTAKVVILGDVIKEAVKDASLVSDSMKFIAKENEFTMRAEGETQEVEVKLTLEDEGLLDIEVQEETKSAYGISYLSDMVKGLGKADEVTIKFGNEMPMQMEYYIRDEGRLIFLLAPRVEE
